Measurements: patent US20190008795A1, “COMPOSITIONS FOR TOPICAL APPLICATION OF COMPOUNDS” (Illustris Pharmaceuticals, Inc., priority 2016, published 2019)

Assay: Enhancement of water content in skin by the decoy molecule (summary)
Design: key: 0: on a scale using +symbols to reflect extent of the effect; −: on a scale using +symbols to reflect extent of the effect; +/−: on a scale using +symbols to reflect extent of the effect; on a scale using +symbols to reflect extent of the effect; ++: on a scale using +symbols to reflect extent of the effect; +++: on a scale using +symbols to reflect extent of the effect; ++++: on a scale using +symbols to reflect extent of the effect; +++++: on a scale using +symbols to reflect extent of the effect

hyaluronic acid [Hyaluronic Acid 100,000 Da]
Water Content Enhancement in Skin (listed as 100,000 Da): +/−

hyaluronic acid [Hyaluronic Acid 20,000 Da]
Water Content Enhancement in Skin (listed as 20,000 Da): +

hyaluronic acid [Hyaluronic Acid 5000 Da]
Water Content Enhancement in Skin (listed as 5000 Da): ++

hyaluronic acid [Hyaluronic Acid 3000 Da]
Water Content Enhancement in Skin (listed as 3000 Da): +++

hyaluronic acid [Hyaluronic Acid degraded 5000 Da]
Water Content Enhancement in Skin (listed as degraded 5000 Da): +++

hyaluronic acid [Hyaluronic Acid disaccharide (400 Da)]
Water Content Enhancement in Skin (listed as disaccharide (400 Da)): +++

hyaluronic acid [Hyaluronic Acid 10,000 Da]
Water Content Enhancement in Skin (listed as 10,000 Da): +

hyaluronic acid [Hyaluronic Acid 100,000 Da degraded]
Water Content Enhancement in Skin (listed as 100,000 Da degraded): +
